The target in the assay is T1, thioredoxin-interacting protein (mouse (endogenous in MLVEC)) (UniProt Q8BG60).
T1 sequence: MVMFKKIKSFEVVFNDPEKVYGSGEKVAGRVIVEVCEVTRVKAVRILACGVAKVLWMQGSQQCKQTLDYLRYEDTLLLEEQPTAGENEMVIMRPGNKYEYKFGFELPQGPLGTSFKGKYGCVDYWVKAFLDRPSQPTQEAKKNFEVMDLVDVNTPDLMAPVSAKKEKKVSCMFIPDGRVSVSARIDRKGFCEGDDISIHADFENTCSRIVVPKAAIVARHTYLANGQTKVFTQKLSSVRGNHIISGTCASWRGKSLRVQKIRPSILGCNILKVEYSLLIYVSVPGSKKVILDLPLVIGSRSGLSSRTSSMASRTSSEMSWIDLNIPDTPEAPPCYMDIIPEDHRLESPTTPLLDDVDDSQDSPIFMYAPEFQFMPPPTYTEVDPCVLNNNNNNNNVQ
In words: co-IP; MLVEC lysate (600 ug total protein) immunoprecipitated with anti-TXNIP Ab, blotted for Nlrp3; lysis buffer 10 mM Tris pH 7.4, 150 mM NaCl, 5 mM EDTA, 1% Triton X-100; cells treated with HMGB1 (0.5 ug/ml, 4 h) and then LPS (1 ug/ml, 3 h); in some experiments NAC (10 mM) 30 min before.

Protein sequences, listed by entry. Tags and fused reporters are not part of them.
UniProt Q8R4B8: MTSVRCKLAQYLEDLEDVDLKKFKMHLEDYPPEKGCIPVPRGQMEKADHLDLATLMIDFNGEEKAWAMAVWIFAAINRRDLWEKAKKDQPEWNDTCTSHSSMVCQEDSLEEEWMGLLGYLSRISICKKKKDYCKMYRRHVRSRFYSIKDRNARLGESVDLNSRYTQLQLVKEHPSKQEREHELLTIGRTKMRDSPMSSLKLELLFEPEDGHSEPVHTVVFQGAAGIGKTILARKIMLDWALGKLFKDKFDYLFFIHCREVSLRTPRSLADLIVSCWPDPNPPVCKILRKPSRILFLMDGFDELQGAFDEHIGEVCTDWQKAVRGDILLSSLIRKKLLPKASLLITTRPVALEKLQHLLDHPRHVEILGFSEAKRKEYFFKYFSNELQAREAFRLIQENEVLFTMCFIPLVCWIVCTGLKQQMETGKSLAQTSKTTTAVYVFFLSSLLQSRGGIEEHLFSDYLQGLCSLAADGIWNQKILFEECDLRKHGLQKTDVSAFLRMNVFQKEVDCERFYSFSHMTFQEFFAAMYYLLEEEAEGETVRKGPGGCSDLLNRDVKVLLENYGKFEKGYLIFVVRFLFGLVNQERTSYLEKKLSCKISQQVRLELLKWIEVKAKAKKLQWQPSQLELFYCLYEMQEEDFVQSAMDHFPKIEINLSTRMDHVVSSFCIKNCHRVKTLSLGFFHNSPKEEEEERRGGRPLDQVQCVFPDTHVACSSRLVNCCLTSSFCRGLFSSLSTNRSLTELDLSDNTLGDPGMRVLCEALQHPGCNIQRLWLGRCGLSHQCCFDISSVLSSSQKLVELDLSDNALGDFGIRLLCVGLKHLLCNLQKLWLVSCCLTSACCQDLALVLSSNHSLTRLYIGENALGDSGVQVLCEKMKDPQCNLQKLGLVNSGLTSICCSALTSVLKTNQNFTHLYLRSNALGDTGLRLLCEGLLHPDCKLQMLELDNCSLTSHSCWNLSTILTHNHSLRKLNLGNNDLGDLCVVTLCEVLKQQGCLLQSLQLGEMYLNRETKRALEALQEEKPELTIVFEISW

No constants are given. Whether binding was seen depends on the method and setting. Binding seen in cells or lysates may run through a third protein. Some entries that bind do so weakly or less than the wild type.

On to “Nlrp3 (NACHT, LRR and PYD domains containing protein 3) (from UniProt Q8R4B8 1-1033)”, for which the binding entry was “binds”.
